Data as given in patent US11206831B2, “Substituted oxadiazoles for combating phytopathogenic fungi” (BASF SE, priority 2015, dated 2021).
Some of these results come from one statement about several compounds together.

Experiments:
Format in all cases: in vivo
[1] = tested on: Phakopsora pachyrhizi; assay: Protective control of soy bean rust on soy beans (glass house trial); conditions: 32 ppm, sprayed 2 days before inoculation (protective), soy bean seedlings, assessed after fourteen days; untreated plants 90%
[2] = tested on: Phakopsora pachyrhizi; assay: Curative control of soy bean rust on soy beans (glass house trial); conditions: 32 ppm, sprayed after inoculation (curative), soy bean seedlings, assessed after 14 days; untreated plants 90%
[3] = tested on: Puccinia recondita; assay: Curative control of brown rust on wheat (glass house trial); conditions: 63 ppm, sprayed after inoculation (curative), wheat seedlings, assessed after 8 days; untreated plants 90%
[4] = tested on: Puccinia recondita; assay: Preventative control of brown rust on wheat (glass house trial); conditions: 63 ppm, sprayed seven days before inoculation (preventative), wheat seedlings, assessed after 6 days; untreated plants 90%

SMILES | diseased leaf area [1] | diseased leaf area [2] | diseased leaf area [3] | diseased leaf area [4]
CCC(C=NOC)CN(C)C(=O)c1ccc(-c2noc(C(F)(F)F)n2)cc1 (stereo not shown) [compound 55] | at most 18% |  |  | 
CC(CC(C)NC(=O)c1ccc(-c2noc(C(F)(F)F)n2)cc1)=NOC(C)(C)C (stereo not shown) [compound 40] | at most 18% |  |  | 
C=CCON=C(C)C(C)NC(=O)c1ccc(-c2noc(C(F)(F)F)n2)cc1 (stereo not shown) [compound 21] | at most 18% |  |  | 
CCON=CNC(=O)c1ccc(-c2noc(C(F)(F)F)n2)cc1 [compound 2] | at most 18% | at most 20% | at most 17% | 
CON=CNC(=O)c1ccc(-c2noc(C(F)(F)F)n2)cc1 [compound 1] | at most 18% | at most 20% |  | 
CC(C)ON=CC1(NC(=O)c2ccc(-c3noc(C(F)(F)F)n3)cc2)CC1 [compound 31] | at most 18% |  | at most 17% | at most 9%
CCON=C(C)C(C)CNC(=O)c1ccc(-c2noc(C(F)(F)F)n2)cc1 (stereo not shown) [compound 49] | at most 18% | at most 20% | at most 17% | at most 9%
CCON=CC(CC)CNC(=O)c1ccc(-c2noc(C(F)(F)F)n2)cc1 (stereo not shown) [compound 53] | at most 18% |  |  | 
CON=CC1(NC(=O)c2ccc(-c3noc(C(F)(F)F)n3)cc2)CC1 [compound 24] | at most 18% | at most 20% | at most 17% | at most 9%
C=CCON=C(C)CNC(=O)c1ccc(-c2noc(C(F)(F)F)n2)cc1 [compound 15] | at most 18% | at most 20% | at most 17% | at most 9%
CC(=NOC(C)C)C(C)NC(=O)c1ccc(-c2noc(C(F)(F)F)n2)cc1 (stereo not shown) [compound 22] | at most 18% | at most 20% |  | 
CCC(C=NOC)CNC(=O)c1ccc(-c2noc(C(F)(F)F)n2)cc1 (stereo not shown) [compound 52] | at most 18% | at most 20% | at most 17% | at most 9%
C=CCON=C(C)C(C)(C)NC(=O)c1ccc(-c2noc(C(F)(F)F)n2)cc1 [compound 26] | at most 18% |  |  | 
CC(C)(C)ON=CC1(NC(=O)c2ccc(-c3noc(C(F)(F)F)n3)cc2)CC1 [compound 32] | at most 18% | at most 20% | at most 17% | 
C=CCON=C(C)CC(C)NC(=O)c1ccc(-c2noc(C(F)(F)F)n2)cc1 (stereo not shown) [compound 43] | at most 18% | at most 20% |  | 
CCON=CC(C)(C)CNC(=O)c1ccc(-c2noc(C(F)(F)F)n2)cc1 [compound 54] | at most 18% | at most 20% | at most 17% | at most 9%
CC(C)ON=CC(C)(C)NC(=O)c1ccc(-c2noc(C(F)(F)F)n2)cc1 [compound 11] | at most 18% | at most 20% |  | 
CC(=NOC(C)C)C(C)(C)NC(=O)c1ccc(-c2noc(C(F)(F)F)n2)cc1 [compound 27] | at most 18% |  |  | 
C=CCON=C(C)C(C)CNC(=O)c1ccc(-c2noc(C(F)(F)F)n2)cc1 (stereo not shown) [compound 50] | at most 18% | at most 20% | at most 17% | at most 9%
CCON=CC(CC)CN(C)C(=O)c1ccc(-c2noc(C(F)(F)F)n2)cc1 (stereo not shown) [compound 56] | at most 18% | at most 20% |  | 
CO/N=C(\C)C(C)NC(=O)c1ccc(-c2noc(C(F)(F)F)n2)cc1 (stereo not shown) [compound 10, N-[(2E)-2-methoxyimino-1-methyl-propyl]-4-[5-(trifluoromethyl)-1,2,4-oxadiazol-3-yl]benzamide] | at most 18% | at most 20% | at most 17% | at most 9%
CON=CCNC(=O)c1ccc(-c2noc(C(F)(F)F)n2)cc1 [compound 9] | at most 18% | at most 20% | at most 17% | at most 9%
CCON=CCNC(=O)c1ccc(-c2noc(C(F)(F)F)n2)cc1 [compound 8] | at most 18% | at most 20% |  | 

SMILES | diseased leaf area [1] | diseased leaf area [2] | diseased leaf area [3] | diseased leaf area [4]
CCON=CC1(NC(=O)c2ccc(-c3noc(C(F)(F)F)n3)cc2)CC1 [compound 29] | at most 18% |  |  | 
CCON=C(C)C(CC)CNC(=O)c1ccc(-c2noc(C(F)(F)F)n2)cc1 (stereo not shown) [compound 47] | at most 18% | at most 20% | at most 17% | at most 9%
CON=CC(C)(C)CN(C)C(=O)c1ccc(-c2noc(C(F)(F)F)n2)cc1 [compound 57] | at most 18% |  |  | 
CCON=CC(C)(C)CN(C)C(=O)c1ccc(-c2noc(C(F)(F)F)n2)cc1 [compound 58] | at most 18% |  |  | 
CCON=CC(C)(C)NC(=O)c1ccc(-c2noc(C(F)(F)F)n2)cc1 [compound 16] | at most 18% | at most 20% |  | 
CON=C(C)NC(=O)c1ccc(-c2noc(C(F)(F)F)n2)cc1 [compound 60] | at most 18% | at most 20% |  | 
C#CCON=C(C)C(C)NC(=O)c1ccc(-c2noc(C(F)(F)F)n2)cc1 (stereo not shown) [compound 7] | at most 18% | at most 20% |  | 
C=CCON=CC(C)(C)NC(=O)c1ccc(-c2noc(C(F)(F)F)n2)cc1 [compound 17] | at most 18% |  |  | 
CON=CC(C)(C)NC(=O)c1ccc(-c2noc(C(F)(F)F)n2)cc1 [compound 12] | at most 18% | at most 20% |  | 
CON=C(C)C(C)CNC(=O)c1ccc(-c2noc(C(F)(F)F)n2)cc1 (stereo not shown) [compound 45] | at most 18% | at most 20% | at most 17% | at most 9%
C=CCON=C(C)C(CC)CNC(=O)c1ccc(-c2noc(C(F)(F)F)n2)cc1 (stereo not shown) [compound 48] | at most 18% | at most 20% |  | 
CCON=C(C)C(C)NC(=O)c1ccc(-c2noc(C(F)(F)F)n2)cc1 (stereo not shown) [compound 19] | at most 18% | at most 20% |  | 
C=CCON=CC1(NC(=O)c2ccc(-c3noc(C(F)(F)F)n3)cc2)CC1 [compound 30] | at most 18% |  |  | 
CCON=C(C)CC(C)NC(=O)c1ccc(-c2noc(C(F)(F)F)n2)cc1 (stereo not shown) [compound 39] | at most 18% | at most 20% | at most 17% | at most 9%
CON=C(C)CC(C)NC(=O)c1ccc(-c2noc(C(F)(F)F)n2)cc1 (stereo not shown) [compound 41] | at most 18% | at most 20% | at most 17% | at most 9%
C#CCON=C(C)CC(C)NC(=O)c1ccc(-c2noc(C(F)(F)F)n2)cc1 (stereo not shown) [compound 44] | at most 18% | at most 20% |  | 
CON=C(C)CNC(=O)c1ccc(-c2noc(C(F)(F)F)n2)cc1 [compound 13] | at most 18% | at most 20% | at most 17% | at most 9%
CCON=C(C)CNC(=O)c1ccc(-c2noc(C(F)(F)F)n2)cc1 [compound 14] | at most 18% | at most 20% | at most 17% | at most 9%
CCC(CNC(=O)c1ccc(-c2noc(C(F)(F)F)n2)cc1)C(C)=NOC (stereo not shown) [compound 46] | at most 18% | at most 20% | at most 17% | at most 9%
CC(CC(C)NC(=O)c1ccc(-c2noc(C(F)(F)F)n2)cc1)=NOC(C)C (stereo not shown) [compound 42] | at most 18% | at most 20% |  | 
CC(C)(C=NOC(C)(C)C)NC(=O)c1ccc(-c2noc(C(F)(F)F)n2)cc1 [compound 18] | at most 18% |  |  | 
CON=C(C)C(C)(C)NC(=O)c1ccc(-c2noc(C(F)(F)F)n2)cc1 [compound 23] | at most 18% | at most 20% |  | 
CON=CC(C)(C)CNC(=O)c1ccc(-c2noc(C(F)(F)F)n2)cc1 [compound 51] | at most 18% | at most 20% | at most 17% | at most 9%
